Measurements taken from paper PMC10371797.
Results are given in words; binding and its absence hold for the method and conditions named. Binding seen in cells or lysates may run through a third protein. These calls come from enrichment with a bait or labelling near it, and not all partners need be listed. For some assays here: Tags and fused reporters may be left off the sequences shown.

The chains behind the UniProt entries cited, without tags or fusion partners.
UniProt Q6NZF1: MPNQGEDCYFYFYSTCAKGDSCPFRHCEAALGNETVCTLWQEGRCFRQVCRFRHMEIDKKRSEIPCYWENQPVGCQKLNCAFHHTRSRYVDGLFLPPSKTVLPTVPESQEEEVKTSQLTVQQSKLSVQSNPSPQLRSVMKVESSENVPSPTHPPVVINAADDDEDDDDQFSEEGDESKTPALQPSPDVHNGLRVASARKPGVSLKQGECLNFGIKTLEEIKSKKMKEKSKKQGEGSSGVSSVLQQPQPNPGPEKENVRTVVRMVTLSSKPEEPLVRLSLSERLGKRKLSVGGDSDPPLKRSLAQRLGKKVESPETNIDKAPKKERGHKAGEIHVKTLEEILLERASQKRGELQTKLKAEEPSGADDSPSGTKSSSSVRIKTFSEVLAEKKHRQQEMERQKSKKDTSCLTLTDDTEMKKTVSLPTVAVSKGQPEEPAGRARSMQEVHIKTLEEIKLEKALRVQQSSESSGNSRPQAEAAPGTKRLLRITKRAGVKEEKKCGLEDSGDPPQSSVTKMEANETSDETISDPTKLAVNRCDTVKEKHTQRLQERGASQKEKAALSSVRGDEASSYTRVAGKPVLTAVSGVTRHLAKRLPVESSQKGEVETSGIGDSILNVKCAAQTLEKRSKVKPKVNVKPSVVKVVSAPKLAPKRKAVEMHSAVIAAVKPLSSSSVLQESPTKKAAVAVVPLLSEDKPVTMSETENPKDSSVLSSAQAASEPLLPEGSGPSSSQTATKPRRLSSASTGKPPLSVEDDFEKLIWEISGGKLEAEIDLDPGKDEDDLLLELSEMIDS

T1: GFP-ZC3H11A(dZF) (human) (UniProt O75152)
T1 sequence: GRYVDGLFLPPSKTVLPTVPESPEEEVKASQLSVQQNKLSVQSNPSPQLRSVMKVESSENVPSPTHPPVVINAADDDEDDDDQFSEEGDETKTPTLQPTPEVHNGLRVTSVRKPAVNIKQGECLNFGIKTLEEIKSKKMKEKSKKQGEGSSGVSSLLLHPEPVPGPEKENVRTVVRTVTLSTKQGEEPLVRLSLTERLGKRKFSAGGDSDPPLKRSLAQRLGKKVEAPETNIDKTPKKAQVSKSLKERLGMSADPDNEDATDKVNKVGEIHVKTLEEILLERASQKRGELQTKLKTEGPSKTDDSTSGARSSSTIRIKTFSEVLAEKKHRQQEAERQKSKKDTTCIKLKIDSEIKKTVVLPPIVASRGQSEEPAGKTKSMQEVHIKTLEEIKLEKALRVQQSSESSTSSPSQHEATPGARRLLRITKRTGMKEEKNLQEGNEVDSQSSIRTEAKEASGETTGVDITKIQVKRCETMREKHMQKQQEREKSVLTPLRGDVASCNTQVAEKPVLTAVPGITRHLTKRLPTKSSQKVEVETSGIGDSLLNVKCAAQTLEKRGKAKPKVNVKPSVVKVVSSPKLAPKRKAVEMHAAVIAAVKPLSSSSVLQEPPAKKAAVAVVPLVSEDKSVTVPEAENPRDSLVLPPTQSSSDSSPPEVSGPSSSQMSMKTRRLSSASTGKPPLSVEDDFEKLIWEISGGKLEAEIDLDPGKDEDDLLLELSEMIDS


Assays:
ZC3H11A(wt)-Flag (human) = ZC3H11A(wt)-Flag (human) (UniProt O75152); assay: affinity purification with mass spectrometry
GFP-ZC3H11A(wt) (human) = GFP-ZC3H11A(wt) (human) (UniProt O75152); assay: affinity purification with mass spectrometry; GFP, GFP-ZC3H11A(wt) or GFP-ZC3H11A(dZF) as baits in transfected HeLa cells; lysate with benzonase; GFP-Trap magnetic beads, 1 h at 4 °C; LC-MS/MS
[1] = biological target: ZC3H11A, endogenous, human HeLa cells (human (endogenous in HeLa)) (UniProt O75152); assay: affinity purification with mass spectrometry; anti-ZC3H11A (heavy) against anti-IgG (light) immunoprecipitation from SILAC-labelled HeLa lysates treated with nuclease; Dynabeads Protein G; LC-MS/MS
[2] = biological target: ZC3H11A, endogenous, mouse embryonic stem cells (mouse (endogenous in mESCs)) (UniProt Q6NZF1); assay: affinity purification with mass spectrometry; anti-ZC3H11A and anti-IgG immunoprecipitation from mouse embryonic stem cell lysates treated with benzonase; mass spectrometry
GFP-ZC3H11A(dZF) (human) = biological target: T1, GFP-ZC3H11A(dZF) (human); assay: affinity purification with mass spectrometry; GFP, GFP-ZC3H11A(wt) or GFP-ZC3H11A(dZF) as baits in transfected HeLa cells; lysate with benzonase; GFP-Trap magnetic beads, 1 h at 4 °C; LC-MS/MS

Binder | binding (GFP-ZC3H11A(wt) (human)) | binding [2] | further results
PABPN1, endogenous, HeLa cells (protein, UniProt Q86U42 1-306) MAAAAAAAAAAGAAGGRGSGPGRRRHLVPGAGGEAGEGAPGGAGDYGNGLESEELEPEELLLEPEPEPEPEEEPPRPRAPPGAPGPGPGSGAPGSQEEEEEPGLVEGDPGDGAIEDPELEAIKARVREMEEEAEKLKELQNEVEKQMNMSPPPGNAGPVIMSIEEKMEADARSIYVGNVDYGATAEELEAHFHGCGSVNRVTILCDKFSGHPKGFAYIEFSDKESVRTSLALDESLFRGRQIKVIPKRTNRPGISTTDRGFPRARYRARTTNYNSSRSRFYSGFNSRPRGRVYRGRARATSWYSPY | binds | – | binding (ZC3H11A(wt)-Flag (human)): binds; binding [1]: binds
CHTOP, endogenous, mouse embryonic stem cells (protein, UniProt Q9CY57 1-249) MAAQSAPKVVLKSTTKMSLNERFTNMLKNKQPMPVNIRASMQQQQQLASARNRRLAQQMENRPSVQAALKLKQKSLKQRLGKSNIQARLGRPIGALARGAIGGRGLPIIQRGLPRGGLRGGRATRTLLRGGMSLRGQNLLRGGRAVAPRMGLRRGGVRGRGGPGRGGLGRGAMGRGGIGGRGRGMIGRGRGGFGGRGRGRGRGRGALTRPVLTKEQLDNQLDAYMSKTKGHLDAELDAYMAQTDPETND | – | binds | –
POLDIP3, endogenous, mouse embryonic stem cells (protein, UniProt Q8BG81 1-420) MADLSLDELIRKRGTAAKGRLSVRPGIGGVRSRVGIQHSLVNQPARTATFQQRFDARQKIGLSDARLKLGVKDAREKLLQKDARFRIKGKVQDAREMLNSRKQQGTVPQKPRQVADAREKISLKRRSPAAFTSPPIGTVTPALKLTKTIQVPQQKAMVPLHAHPAGMRINVVNNHQAKQNLYDLDEDDDIVVPVPPKQMKFAATGSLVHHMTGLSSSKLSMSKALPLTKVVQNDAYTAPVLPSSVRTKALTSMSRTLVNKEEPPKELPPAEPVLSPLEGTKMTVNNLHPRVTEEDIVELFCVCGALKRARLVHPGVAEVVFVKKDDAITAYKKYNNRCLDGQPMKCNLHMNGNVITSDQPILLRLSDSPSVKKESELPRRGNPASSNPPAEVDPDTVLRALFKSSGASVTTQPTEFKIKL | – | binds | –
THOC1, endogenous, HeLa cells (protein, UniProt Q96FV9 1-657) MSPTPPLFSLPEARTRFTKSTREALNNKNIKPLLSTFSQVPGSENEKKCTLDQAFRGILEEEIINHSSCENVLAIISLAIGGVTEGICTASTPFVLLGDVLDCLPLDQCDTIFTFVEKNVATWKSNTFYSAGKNYLLRMCNDLLRRLSKSQNTVFCGRIQLFLARLFPLSEKSGLNLQSQFNLENVTVFNTNEQESTLGQKHTEDREEGMDVEEGEMGDEEAPTTCSIPIDYNLYRKFWSLQDYFRNPVQCYEKISWKTFLKYSEEVLAVFKSYKLDDTQASRKKMEELKTGGEHVYFAKFLTSEKLMDLQLSDSNFRRHILLQYLILFQYLKGQVKFKSSNYVLTDEQSLWIEDTTKSVYQLLSENPPDGERFSKMVEHILNTEENWNSWKNEGCPSFVKERTSDTKPTRIIRKRTAPEDFLGKGPTKKILMGNEELTRLWNLCPDNMEACKSETREHMPTLEEFFEEAIEQADPENMVENEYKAVNNSNYGWRALRLLARRSPHFFQPTNQQFKSLPEYLENMVIKLAKELPPPSEEIKTGEDEDEEDNDALLKENESPDVRRDKPVTGEQIEVFANKLGEQWKILAPYLEMKDSEIRQIECDSEDMKMRAKQLLVAWQDQEGVHATPENLINALNKSGLSDLAESLTNDNETNS | binds | – | –
THOC6, endogenous, HeLa cells (protein, UniProt Q86W42 1-341) MERAVPLAVPLGQTEVFQALQRLHMTIFSQSVSPCGKFLAAGNNYGQIAIFSLSSALSSEAKEESKKPVVTFQAHDGPVYSMVSTDRHLLSAGDGEVKAWLWAEMLKKGCKELWRRQPPYRTSLEVPEINALLLVPKENSLILAGGDCQLHTMDLETGTFTRVLRGHTDYIHCLALRERSPEVLSGGEDGAVRLWDLRTAKEVQTIEVYKHEECSRPHNGRWIGCLATDSDWMVCGGGPALTLWHLRSSTPTTIFPIRAPQKHVTFYQDLILSAGQGRCVNQWQLSGELKAQVPGSSPGLLSLSLNQQPAAPECKVLTAAGNSCRVDVFTNLGYRAFSLSF | binds | – | –
POLDIP3, endogenous, HeLa cells (protein, UniProt Q9BY77 1-421) MADISLDELIRKRGAAAKGRLNARPGVGGVRSRVGIQQGLLSQSTRTATFQQRFDARQKIGLSDARLKLGVKDAREKLLQKDARFRIKGKVQDAREMLNSRKQQTTVPQKPRQVADAREKISLKRSSPAAFINPPIGTVTPALKLTKTIQVPQQKAMAPLHPHPAGMRINVVNNHQAKQNLYDLDEDDDGIASVPTKQMKFAASGGFLHHMAGLSSSKLSMSKALPLTKVVQNDAYTAPALPSSIRTKALTNMSRTLVNKEEPPKELPAAEPVLSPLEGTKMTVNNLHPRVTEEDIVELFCVCGALKRARLVHPGVAEVVFVKKDDAITAYKKYNNRCLDGQPMKCNLHMNGNVITSDQPILLRLSDSPSMKKESELPRRVNSASSSNPPAEVDPDTILKALFKSSGASVTTQPTEFKIKL | binds | – | binding (GFP-ZC3H11A(dZF) (human)): binds; binding [1]: binds
PABPN1, endogenous, mouse embryonic stem cells (protein, UniProt Q8CCS6 1-302) MAAAAAAAAAAGAAGGRGSGPGRRRHLVPGAGGEAGEGDPGGAGDYGNGLESEELEPGELLPEPEPEEEPPRPRAPPGAPGPGPGSGAPGSQEEEEEPGLVEADPGDGAIEDPELEAIKARVREMEEEAEKLKELQNEVEKQMNMSPPPGNAGPVIMSLEEKMEADARSIYVGNVDYGATAEELEAHFHGCGSVNRVTILCDKFSGHPKGFAYIEFSDKESVRTSLALDESLFRGRQIKVIPKRTNRPGISTTDRGFPRSRYRARTTNYNSSRSRFYSGFNSRPRGRIYRGRARATSWYSPY | – | binds | –
